Test results from patent US20020086844A1 (Harvard, published 2002).
Results are given in words; binding and its absence hold for the method and conditions named. In cells and extracts the contact can be indirect. Some results given as binding are weak or reduced against the parent protein; the word gives no strength.

By UniProt entry, the sequences of proteins in these tests, tags left out. Residues count along the entry.
UniProt P38646, residues 47-679: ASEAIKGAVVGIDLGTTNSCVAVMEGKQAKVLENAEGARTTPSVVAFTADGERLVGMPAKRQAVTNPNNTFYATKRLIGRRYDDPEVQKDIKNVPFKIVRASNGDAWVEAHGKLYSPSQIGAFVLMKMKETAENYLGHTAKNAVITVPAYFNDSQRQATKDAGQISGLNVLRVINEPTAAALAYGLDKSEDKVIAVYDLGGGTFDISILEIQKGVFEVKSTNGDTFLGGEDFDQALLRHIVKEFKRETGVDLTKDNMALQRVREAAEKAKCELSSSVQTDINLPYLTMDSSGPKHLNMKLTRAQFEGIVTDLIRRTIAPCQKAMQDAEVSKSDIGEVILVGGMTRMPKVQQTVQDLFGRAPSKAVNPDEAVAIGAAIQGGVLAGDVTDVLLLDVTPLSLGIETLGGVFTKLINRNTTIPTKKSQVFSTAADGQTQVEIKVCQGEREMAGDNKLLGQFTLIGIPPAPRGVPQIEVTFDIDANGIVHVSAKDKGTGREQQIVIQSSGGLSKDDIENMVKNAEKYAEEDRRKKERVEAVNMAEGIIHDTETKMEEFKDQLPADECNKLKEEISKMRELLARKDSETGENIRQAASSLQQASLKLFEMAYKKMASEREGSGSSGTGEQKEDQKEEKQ

Legend:
[1] = target: mitochondrial Hsp70 homolog, mtHsp70 (GRP75) (human) (UniProt P38646); assay: co-immunoprecipitation, SDS/PAGE and Western blot (FIG. 2C)
[2] = target: mitochondrial Hsp70 homolog, mtHsp70 (GRP75) (human) (UniProt P38646); assay: co-immunoprecipitation and immunoblot of endogenous proteins, both directions
[3] = target: mitochondrial Hsp70 homolog, mtHsp70 (GRP75) (human) (UniProt P38646); assay: heading of the FIG. 2 legend (co-immunoprecipitation)

Measured: binding

B1: hTid-1S (other)
chain: VSLTGTKHNPFICTASFHTSAPLAKEDYYQILGVPRNASQKEIKKAYYQLAKKYHPDTNKDDPKAKEKFSQLAEAYEVLSDEVKRKQYDAYGSAGFDPGASGSQHSYWKGGPTVDPEELFRKIFGEFSSSSFGDFQTVFDQPQEYFMELTFNQAAKGVNKEFTVNIMDTCERCNGKGNEPGTKVQHCHYCGGSGMETINTGPFVMRSTCRRCGGRGSIIISPCVVCRGAGQAKQKKRVMIPVPAGVEDGQTVRMPVGKREIFITFRVQKSPVFRRDGADIHSDLFISIAQALLGGTARAQGLYETINVTIPPGTQTDQKIRMGGKGIPRINSYGYGDHYIHIKIRVPKRLTSRQQSLILSYAEDETDVEGTVNGVTLTSSGKRSTGN
notes: Endogenous protein from human cell lysates; also called short form of human Tid1; 40 kDa TID1 splice variant
binds: all assays above

B2: hTid-1L (other)
chain: VSLTGTKHNPFICTASFHTSAPLAKEDYYQILGVPRNASQKEIKKAYYQLAKKYHPDTNKDDPKAKEKFSQLAEAYEVLSDEVKRKQYDAYGSAGFDPGASGSQHSYWKGGPTVDPEELFRKIFGEFSSSSFGDFQTVFDQPQEYFMELTFNQAAKGVNKEFTVNIMDTCERCNGKGNEPGTKVQHCHYCGGSGMETINTGPFVMRSTCRRCGGRGSIIISPCVVCRGAGQAKQKKRVMIPVPAGVEDGQTVRMPVGKREIFITFRVQKSPVFRRDGADIHSDLFISIAQALLGGTARAQGLYETINVTIPPGTQTDQKIRMGGKGIPRINSYGYGDHYIHIKIRVPKRLTSRQQSLILSYAEDETDVEGTVNGVTLTSSGGSTMDSSAGSKARREAGEDEEGFLSKLKKMFTS
notes: Endogenous protein from human cell lysates; also called long form of human Tid1; 43 kDa TID1 splice variant
binds: all assays above
